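Human melanoma cell lines in 1,536-well plates were treated with two drugs together for 72 h, then fixed, stained and imaged. Values are the number of DAPI-stained nuclei as a percentage of the DMSO control: 100 is no effect, lower means fewer cells. Concentrations were fixed for each drug; these are the higher of two levels. The file gives one value for each pair and line, without errors, so small differences may be noise.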 Only some of the drugs and lines screened are listed, without regard to their results. An entry leaves out what has no value listed here.

Compounds and concentrations:
dovitinib (500 nM): CN1CCN(c2ccc3nc(-c4c(N)c5c(F)cccc5[nH]c4=O)[nH]c3c2)CC1
ENMD-2076 (200 nM): Cc1cc(Nc2cc(N3CCN(C)CC3)nc(/C=C/c3ccccc3)n2)n[nH]1
OSU-03012 (5000 nM): NCC(=O)Nc1ccc(-n2nc(C(F)(F)F)cc2-c2ccc3c(ccc4ccccc43)c2)cc1
SNS-032 (50 nM): CC(C)(C)c1cnc(CSc2cnc(NC(=O)C3CCNCC3)s2)o1
U73122 (2000 nM): COc1ccc2c(c1)CCC1C2CCC2(C)C(NCCCCCCN3C(=O)C=CC3=O)CCC12 (centres unmarked)
ZM336372 (10000 nM): Cc1ccc(NC(=O)c2cccc(N(C)C)c2)cc1NC(=O)c1ccc(O)cc1
STA-4783 (30 nM): CN(NC(=O)CC(=O)NN(C)C(=S)c1ccccc1)C(=S)c1ccccc1
VX-702 (2000 nM): NC(=O)c1ccc(N(C(N)=O)c2c(F)cccc2F)nc1-c1ccc(F)cc1F
midostaurin (400 nM): CO[C@@H]1[C@H](N(C)C(=O)c2ccccc2)C[C@H]2O[C@]1(C)n1c3ccccc3c3c4c(c5c6ccccc6n2c5c31)C(=O)NC4
RKI-983 (2000 nM): C[C@@H](N)c1ccc(C(=O)Nc2ccnc3[nH]ccc23)cc1
veliparib (7000 nM): C[C@]1(c2nc3c(C(N)=O)cccc3[nH]2)CCCN1
nilotinib (1000 nM): Cc1cn(-c2cc(NC(=O)c3ccc(C)c(Nc4nccc(-c5cccnc5)n4)c3)cc(C(F)(F)F)c2)cn1
GW441756 (2000 nM): Cn1cc(/C=C2\C(=O)Nc3cccnc32)c2ccccc21
NVP-BEZ235 (20 nM): Cn1c(=O)n(-c2ccc(C(C)(C)C#N)cc2)c2c3cc(-c4cnc5ccccc5c4)ccc3ncc21
YM155 (2 nM): COCC[n+]1c2c(n(Cc3cnccn3)c1C)C(=O)c1ccccc1C2=O
palbociclib (200 nM): CC(=O)c1c(C)c2cnc(Nc3ccc(N4CCNCC4)cn3)nc2n(C2CCCC2)c1=O
bexarotene (10000 nM): C=C(c1ccc(C(=O)O)cc1)c1cc2c(cc1C)C(C)(C)CCC2(C)C

With bexarotene + veliparib the screen read C32: 97.5; WM3619: 62.5; COLO 800: 88.3; COLO 792: 71.4.
With dovitinib + NVP-BEZ235 the screen read WM3619: 61.3.
With palbociclib + YM155 the screen read C32: 87.3; WM3619: 77.7; COLO 800: 39.3; COLO 792: 28.7.
With palbociclib + veliparib the screen read C32: 83.4; WM3619: 61.8; COLO 800: 80.6; COLO 792: 56.3.
With veliparib + RKI-983 the screen read C32: 64.9; A375: 98.2; WM3619: 80.0; COLO 800: 63.1; COLO 792: 80.2.
With veliparib + NVP-BEZ235 the screen read C32: 99.4; WM3619: 61.6.
With YM155 + RKI-983 the screen read WM3619: 76.6.
With VX-702 + ENMD-2076 the screen read COLO 792: 78.9.
With RKI-983 + dovitinib the screen read WM3619: 55.1; COLO 792: 23.9.
With U73122 + palbociclib the screen read WM3619: 72.2.
With dovitinib + ENMD-2076 the screen read WM3619: 72.5; COLO 792: 43.9.
With RKI-983 + OSU-03012 the screen read C32: 60.5; A375: 43.5; COLO 800: 51.8; COLO 792: 63.2.
With NVP-BEZ235 + STA-4783 the screen read C32: 18.7; WM3619: 22.7.
With nilotinib + GW441756 the screen read C32: 80.8; WM3619: 81.3; COLO 800: 76.3; COLO 792: 98.0.
With OSU-03012 + midostaurin the screen read C32: 65.0; WM3619: 49.6; COLO 800: 41.3; COLO 792: 38.7.
With GW441756 + NVP-BEZ235 the screen read WM3619: 101; COLO 792: 85.1.
With ZM336372 + midostaurin the screen read C32: 74.9.
With STA-4783 + veliparib the screen read C32: 30.4; WM3619: 4.6; COLO 800: 7.9; COLO 792: 7.6.
With ZM336372 + nilotinib the screen read C32: 118; WM3619: 68.7; COLO 800: 82.8; COLO 792: 129.
With bexarotene + RKI-983 the screen read C32: 87.3; A375: 112; WM3619: 80.8; COLO 800: 59.7; COLO 792: 37.5.
With veliparib + ENMD-2076 the screen read C32: 80.3.
With SNS-032 + NVP-BEZ235 the screen read WM3619: 90.3.
With U73122 + NVP-BEZ235 the screen read WM3619: 49.7; COLO 792: 102.
With RKI-983 + nilotinib the screen read COLO 792: 57.2.
With ZM336372 + STA-4783 the screen read C32: 22.4.
With VX-702 + RKI-983 the screen read WM3619: 76.9.
With ENMD-2076 + midostaurin the screen read C32: 85.6; WM3619: 86.4; COLO 800: 50.8; COLO 792: 62.7.
With ZM336372 + OSU-03012 the screen read C32: 94.2; WM3619: 52.3; COLO 800: 36.9; COLO 792: 65.3.

3 of the entries, repeated:

* bexarotene + RKI-983 : C32: 87.3; A375: 112; WM3619: 80.8; COLO 800: 59.7; COLO 792: 37.5
* palbociclib + veliparib : C32: 83.4; WM3619: 61.8; COLO 800: 80.6; COLO 792: 56.3
* OSU-03012 + midostaurin : C32: 65.0; WM3619: 49.6; COLO 800: 41.3; COLO 792: 38.7

Values as published with doi:10.1371/journal.pone.0140310, rounded.